# Reference: the supplement of paper PMC7411640
# Where a name gives a salt, the structure may show the parent alone. Some of the results follow. This data set is noisy: repeats of one test often differ as much as different tests do.
# Test system: MDA-MB-468
# Assay: phospho-S6 immunofluorescence (DAPI-normalised), per-plate z-score; higher = higher phospho-S6 signal (less pathway suppression)
# Conditions: 24 h
# Procedure: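 GPCR-targeted compound library (MedChemExpress HY-L006) tested on MDA-MB-468 PTEN-null TNBC cells in 384-well plates at 0.1, 1 or 10 uM, combined with vehicle, GDC0941 450 nM or lapatinib 1 uM, for 24 h. Phospho-S6 (S240/244) immunofluorescence normalised to DAPI and expressed as a per-plate z-score; values are the mean of biological triplicates.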
# [1] = compound 0.1 µM, co-treatment: GDC0941 450 nM
# [2] = compound 0.1 µM, co-treatment: lapatinib 1 uM
# [3] = compound 0.1 µM, co-treatment: vehicle
# [4] = compound 1 µM, co-treatment: GDC0941 450 nM
# [5] = compound 1 µM, co-treatment: lapatinib 1 uM
# [6] = compound 1 µM, co-treatment: vehicle
# [7] = compound 10 µM, co-treatment: GDC0941 450 nM
# [8] = compound 10 µM, co-treatment: lapatinib 1 uM
# [9] = compound 10 µM, co-treatment: vehicle
Compound,phospho-S6 immunofluorescence (z-score) [1],phospho-S6 immunofluorescence (z-score) [2],phospho-S6 immunofluorescence (z-score) [3],phospho-S6 immunofluorescence (z-score) [4],phospho-S6 immunofluorescence (z-score) [5],phospho-S6 immunofluorescence (z-score) [6],phospho-S6 immunofluorescence (z-score) [7],phospho-S6 immunofluorescence (z-score) [8],phospho-S6 immunofluorescence (z-score) [9]
C[C@H](NC(=O)CNC(=O)c1cccc(Cl)c1)c1ccccc1,-0.39,-0.36,-0.04,-0.63,-0.16,0,0.04,0.45,0.46
CC(C)N(CC[C@H](c1ccccc1)c1cc(CO)ccc1O)C(C)C [(R)-5-Hydroxymethyl Tolterodine],-0.63,-0.13,0.97,-0.62,-0.19,-0.28,–,–,–
CC(C)(O)c1ccccc1CC[C@@H](SCC1(CC(=O)O)CC1)c1cccc(/C=C/c2ccc3ccc(Cl)cc3n2)c1 [Montelukast (sodium)],0.87,0.59,1.13,0.16,0.02,1.25,0.45,0.97,1.39
OC(CCN1CCCCC1)(c1ccccc1)C1CC2C=CC1C2 (configuration not stated) [Biperiden (Hydrochloride)],-0.99,-0.95,-1.42,-1.1,-1.09,-3.46,-1.68,-0.97,-1.56
Cc1noc(-c2ccc(-c3ccc(CC(=O)O)cc3)cc2)c1NC(=O)O[C@H](C)c1ccccc1 [AM095 (free acid)],1.27,0.13,-0.07,1.67,0.73,0.75,1.08,0.37,0.82
